Experimental findings from PMC3071809, “Recombinant Complement Receptor 2 Radiolabeled with [^99mTc(CO)3]^+ : A Potential New Radiopharmaceutical for Imaging Activated Complement” (PLoS ONE, 2011) are described below.

By UniProt entry, the sequences of proteins in these tests, tags left out. Residues count along the entry.
UniProt P01024, residues 1002-1303: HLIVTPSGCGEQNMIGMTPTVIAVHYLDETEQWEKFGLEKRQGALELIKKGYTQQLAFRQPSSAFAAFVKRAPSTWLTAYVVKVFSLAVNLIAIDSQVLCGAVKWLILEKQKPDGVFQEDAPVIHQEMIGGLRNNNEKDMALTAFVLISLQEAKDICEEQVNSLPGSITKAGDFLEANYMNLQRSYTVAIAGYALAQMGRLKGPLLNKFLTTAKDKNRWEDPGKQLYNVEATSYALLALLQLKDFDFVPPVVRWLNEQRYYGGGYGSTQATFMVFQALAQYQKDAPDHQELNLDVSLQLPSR

No constants are given. Whether binding was seen depends on the method and setting. Some binding calls cover weakened binding; strength is not graded here.

The target of test [1] is human C3d deposited on sensitized sheep red blood cells (human C3d+ RBC) (human (from human C6 deficient serum)) (UniProt P01024). The experiment in a line: flow cytometry on cells; 1.5 µM rCR2, C2A or K41E CR2 with 2.5×10^7 human C3d+ sheep RBC in PBS and 2 mM EDTA, 60 min; anti-HIS-FITC; only the binder purified. Background: A flow cytometer gives signals particle by particle.

For test [2] the target is unchanged. The experiment in a line: condition: only after pre-incubation with 10 µg/mL anti-human C3d; flow cytometry on cells; as a5, but C3d+ RBC pre-incubated with 10 µg/mL anti-human C3d before rCR2 and anti-HIS-FITC; only the binder purified.
Test [3] addresses recombinant Complement Receptor 2 (rCR2), Short Consensus Repeats 1 and 2 of human CR2 with the C-terminal sequence … (human) (UniProt P20023). The test is described as follows: SEC; preparative Sephacryl 100 column, PBS pH 7.4 and 0.5 M NaCl, 1 mL/min; both purified. On the technique in general: In gel filtration, larger molecules generally elute earlier.
For test [4], the target named is human C3d deposited on sensitized sheep red blood cells (human C3d+ RBC) (human (from human C6 deficient serum)) (UniProt P01024). The test is described as follows: radioligand binding; as a8, but C3d+ RBC incubated with 10 µg/mL anti-human C3d followed by ^99mTc-rCR2; only the binder purified.
For test [5] the target is unchanged. The experiment in a line: radioligand binding; ^99mTc-labeled proteins with 2.5×10^7 human C3d+ sheep RBC; washed five times with PBS; cell pellet gamma counted, percent of total radioactivity; only the binder purified.

B1: recombinant Complement Receptor 2 (rCR2), Short Consensus Repeats 1 and 2 of human CR2 with the C-terminal sequence … (domain or fragment, UniProt P20023 21-154, looked up)
chain: ISCGSPPPILNGRISYYSTPIAVGTVIRYSCSGTFRLIGEKSLLCITKDKVDGTWDKPAPKCEYFNKYSSCPEPIVPGGYKIRGSTPYRHGDSVTFACKTNFSMNGNKSVWCQANNMWGPTRLPTCVSVFPLEC
notes: complement receptor type 2 (CR2, CD21), human, residues 21-154: SCR1, SCR2 and the SCR2 to SCR3 linker VFPLEC; 15.5 kDa; cloned in pET-24a (NdeI/EcoRI); also called recombinant CR2; SCR1/2 fragment; not shown: His6, C-terminal, kept
On to B1, for which the binding result in test [1] is given as “binds”; in test [2], “no binding”; in test [3] it was “no binding”.

B2: ^99mTc-rCR2 (rCR2 radiolabeled with [^99mTc(CO)3]^+ on the His-tag) (domain or fragment, human, UniProt P20023 21-154, looked up)
chain: B1 chain
modifications: [^99mTc(CO)3]^+ on the C-terminal His-tag
notes: complement receptor type 2 (CR2), human, residues 21-154, as m1; m1 with the radiolabel; also called rCR2-Tc^99m; rCR2-[^99mTc(CO)3]; source: labeled with [^99mTc(CO)3(OH2)3]^+ at 37°C; not shown: His6, C-terminal, kept
As to B2, the binding result in test [4] is recorded as “no binding (condition: with 10 µg/mL anti-human C3d)”; in test [5] it was “binds”.
